For ten molecules, IC50 results are on record in PMC9610606, “Design, Synthesis, In Silico Testing, and In Vitro Evaluation of Thiazolidinone-Based Benzothiazole Derivatives as Inhibitors of α-Amylase and α-Glucosidase” (Pharmaceuticals, 2022).

Sequences of proteins named here, by UniProt entry; tags and fusion partners are left off. Residues count along the entry.
UniProt P53341, whole entry: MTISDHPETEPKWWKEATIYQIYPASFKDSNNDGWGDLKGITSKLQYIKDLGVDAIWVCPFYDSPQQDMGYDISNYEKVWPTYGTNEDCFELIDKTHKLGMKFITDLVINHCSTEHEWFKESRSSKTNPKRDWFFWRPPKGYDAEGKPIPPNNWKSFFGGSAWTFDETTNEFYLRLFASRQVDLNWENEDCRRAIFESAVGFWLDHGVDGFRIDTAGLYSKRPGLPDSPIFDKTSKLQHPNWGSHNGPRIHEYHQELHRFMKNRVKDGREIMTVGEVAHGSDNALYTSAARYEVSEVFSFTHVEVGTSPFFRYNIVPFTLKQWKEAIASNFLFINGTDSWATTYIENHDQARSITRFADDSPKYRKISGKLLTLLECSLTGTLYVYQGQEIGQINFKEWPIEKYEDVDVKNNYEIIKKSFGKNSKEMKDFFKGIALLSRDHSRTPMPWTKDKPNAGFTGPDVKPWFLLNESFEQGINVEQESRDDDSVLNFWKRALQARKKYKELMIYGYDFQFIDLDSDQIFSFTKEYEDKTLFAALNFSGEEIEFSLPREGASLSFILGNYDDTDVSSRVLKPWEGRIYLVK
UniProt P00690, 16-511 limits assumed: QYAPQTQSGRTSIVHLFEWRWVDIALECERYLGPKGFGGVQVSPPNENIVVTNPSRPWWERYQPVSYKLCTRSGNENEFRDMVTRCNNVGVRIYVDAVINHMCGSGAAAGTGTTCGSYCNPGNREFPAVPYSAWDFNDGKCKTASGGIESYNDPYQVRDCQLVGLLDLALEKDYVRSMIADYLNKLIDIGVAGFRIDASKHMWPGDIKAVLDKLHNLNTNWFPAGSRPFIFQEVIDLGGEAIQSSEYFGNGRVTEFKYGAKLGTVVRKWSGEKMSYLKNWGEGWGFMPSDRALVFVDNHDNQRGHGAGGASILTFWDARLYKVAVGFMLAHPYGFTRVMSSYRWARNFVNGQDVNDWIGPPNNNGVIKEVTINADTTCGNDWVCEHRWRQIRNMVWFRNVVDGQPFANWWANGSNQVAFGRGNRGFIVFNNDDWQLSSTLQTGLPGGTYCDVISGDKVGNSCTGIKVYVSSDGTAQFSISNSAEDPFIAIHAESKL

Structures were worked out from names or drawings and are uncertain.

For one test, the target named is α-glucosidase (Saccharomyces cerevisiae, UniProt P53341). Particulars: read-out: α-Glucosidase IC50.
A further test deals with α-amylase (Sus scrofa, UniProt P00690). The test can be described thus: In vitro α-amylase inhibitory assay. Conditions: read-out: α-Amylase IC50. The format is biochemical.

Regarding `O=C1N/C(=N/c2nccs2)S/C1=C\c1cc(O)c2ncsc2c1Cl`, the IC50 at α-glucosidase was 11.1 µM; at α-amylase it was 10.3 µM. The matching figures for `O=C1N/C(=N/c2nccs2)S/C1=C\c1cc2scnc2cc1F`: 4.8 µM and 2.3 µM. For the molecule `O=C1N/C(=N/c2nccs2)S/C1=C\c1cc([N+](=O)[O-])c2ncsc2c1`, the IC50 at α-glucosidase amounted to 7.2 µM; at α-amylase it was 6.6 µM.

With `O=C1N/C(=N/c2nccs2)S/C1=C\c1cc(F)c2ncsc2c1`, the results for the IC50 on α-glucosidase and on α-amylase were 3.5 µM and 2.4 µM, respectively. The matching figures for `COc1cc2ncsc2c(O)c1/C=C1\S/C(=N\c2nccs2)NC1=O`: 12.7 µM and 11.6 µM. With `O=C1N/C(=N/c2nccs2)S/C1=C\c1cc(O)c2ncsc2c1O`, the IC50 at α-glucosidase is 4.5 µM; at α-amylase it was 3.9 µM. As to `O=C1N/C(=N/c2nccs2)S/C1=C\c1c(O)cc2ncsc2c1Cl`, the IC50 on α-glucosidase stood at 9.85 µM; at α-amylase, 7.9 µM. Take `O=C1N/C(=N/c2nccs2)S/C1=C\c1cc2scnc2c(Cl)c1[N+](=O)[O-]`: the IC50 at α-amylase stood at 9.9 µM. For the molecule `O=C1N/C(=N/c2nccs2)S/C1=C\c1cc2scnc2c(Cl)c1Cl`, the IC50 on α-glucosidase came to 13.8 µM; on α-amylase, 13.2 µM. For `O=C1N/C(=N/c2nccs2)S/C1=C\c1ccc2ncsc2c1Cl`, in that order: 10.5 µM and 9.7 µM.
